# Primary screen of a compound library

By UniProt entry, the sequences of proteins in these tests, tags left out.
UniProt E9BF75, entry or part of it: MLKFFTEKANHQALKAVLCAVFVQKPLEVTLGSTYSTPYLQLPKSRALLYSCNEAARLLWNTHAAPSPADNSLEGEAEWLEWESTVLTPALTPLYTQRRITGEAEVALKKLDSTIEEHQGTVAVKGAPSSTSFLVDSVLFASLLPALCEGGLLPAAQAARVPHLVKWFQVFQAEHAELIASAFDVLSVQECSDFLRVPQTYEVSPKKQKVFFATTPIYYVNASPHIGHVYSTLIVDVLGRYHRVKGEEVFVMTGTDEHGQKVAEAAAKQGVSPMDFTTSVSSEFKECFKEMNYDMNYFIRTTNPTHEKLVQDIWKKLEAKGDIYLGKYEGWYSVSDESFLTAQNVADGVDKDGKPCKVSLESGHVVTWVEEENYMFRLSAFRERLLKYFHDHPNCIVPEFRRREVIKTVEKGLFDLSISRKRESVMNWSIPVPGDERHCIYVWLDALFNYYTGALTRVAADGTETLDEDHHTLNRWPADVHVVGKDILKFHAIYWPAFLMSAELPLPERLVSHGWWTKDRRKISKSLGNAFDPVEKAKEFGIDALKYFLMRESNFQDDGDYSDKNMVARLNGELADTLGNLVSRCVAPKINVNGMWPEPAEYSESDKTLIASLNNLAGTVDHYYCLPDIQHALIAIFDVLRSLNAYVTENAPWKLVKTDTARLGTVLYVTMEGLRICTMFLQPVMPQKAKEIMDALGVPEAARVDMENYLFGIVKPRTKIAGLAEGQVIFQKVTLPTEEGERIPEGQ

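Methionyl-tRNA synthetase (putative), Leishmania donovani (UniProt E9BF75). Primary screen of methionyl-tRNA synthetase; the read-out is not stated. The test concentration is not given. Values are per cent inhibition. About 68,000 compounds were tested under these conditions; 0.035% (about 24) showed 50% or more at least once.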

All values are in %. The controls that fix the scale are not given in the record; negative values are as filed. The compounds are a random part of those screened.

With Cc1noc(C)c1CCC(=O)NC(C)c1nnc2n1CCCCC2 (stereo not given) the screen gave 8.541%. For Cc1cccc(CN2C[C@H](OCc3csc(C)n3)[C@H]3COC[C@H]32)n1 the result was 9.375%. Cc1cc(N2CCN(C(=O)[C@@H]3C[C@@H]4C=C[C@H]3C4)CC2)cc(C)n1 gave 2.638%. Result for CCN1C(=O)C(C)(C)c2cc(NC(=O)c3ccn(CC)n3)ccc21 was 16.43%. With CCC[C@@H]1CN(Cc2c[nH]nc2-c2ccc(F)cc2)C[C@H]1NS(C)(=O)=O the screen gave 8.517%.

O=c1n(CC2CCCCO2)nc(CC2CCNCC2)n1-c1ccccc1 (stereo not given) gave 9.926%. With CC(C)CCN1CC2(CCCN(C(=O)CNC(=O)N(C)C)C2)CCC1=O (stereo not given) the screen gave 8.122%. Cc1nsc(NC(=O)NC2(CN3CCOCC3)CCCCC2)n1 read 9.253%. Cc1nnc(CN2CCN(CC(O)c3ccccc3)CC2)o1 (stereo not given) gave 14.46%. CCN1CCOCC12CCN(C(=O)c1ccsc1)CC2 read 14.49%.

With COCCCn1ccc(NC(=O)NCc2cccc(N(C)C)c2)n1 the screen gave 13.18%. For CC(NC(=O)NCCCc1n[nH]c(N)c1C#N)c1ccccc1F (stereo not given) the result was 23.38%. COC(CNC(=O)c1cn(C)nn1)c1ccccc1C (stereo not given) read 5.59%. CC(Cc1ccco1)NC(=O)C1=NN(c2ccccc2)C(=O)CC1 (stereo not given) read 8.71%. Result for CCC(CNC(=O)NCc1cc[nH]n1)N1CCCC1 (stereo not given) was 10.68%.

For CN1CCOC(CNC(=O)Cc2ccccc2F)C1 (stereo not given) the result was 15.95%. CCOCC1CC2(CCN(C(=O)c3ccccn3)CC2)CO1 (stereo not given) read 16.74%. Result for Cc1nnc(SCc2cc(=O)n3c4c(sc3n2)CCCC4)[nH]1 was 16.28%. Result for COCc1nn(CC2CC2)c2c1CN(Cc1cccs1)CC2 was 12.22%. COc1cc(NC(=O)c2cc(Cl)ccc2F)c(C(=O)N(C)C)cc1OC read 24.4%.

COc1ccc2c(C(=O)N(C)C)cc(-c3cnc(N)nc3)nc2c1 read 7.971%. For Cc1nc(C)c(CCNc2ccc(S(N)(=O)=O)cc2C#N)s1 the result was 8.182%. O=C(NC1CCS(=O)(=O)C1)c1sccc1OC(F)F (stereo not given) read 15.36%. CN(C)Cc1cc(=O)n2c(n1)CN(CC1CCOCC1)CCC2 gave 11.68%. For Cc1ccc(CNC(=O)Nc2nnc(C3CC3)s2)n1C the result was 16.85%.

CC1CCN(C(=O)c2ccn(COc3ccc(F)cc3)n2)CC1 gave 3.937%. CCOc1nc2cnccc2n(CC(=O)NCCc2ccccc2)c1=O read 3.944%. CN1C(=O)CC(c2cnn(C)c2)C12CCN(C(=O)C1CC=CC1)CC2 (stereo not given) gave 3.03%. Result for CC(=O)NCc1ccc(C(=O)NC2CCc3nc(C)cn3C2)o1 (stereo not given) was 2.732%. With COc1ccccc1CN1C(=O)O[C@@H]2CN(S(=O)(=O)N(C)C)C[C@@H]21 the screen gave 8.052%.

Cc1c(F)cccc1CN1CCn2nc(CNC(=O)N(C)C)cc2C1 read 5.926%. For CCN1C[C@@H]2[C@@H](OC)CCN(S(=O)(=O)c3ccccc3F)[C@@H]2C1 the result was 9.408%. O=c1[nH]c2nc(NC3CC3)ncc2c(=O)n1-c1ccc(F)cc1 gave 14.29%. Result for CCCC(CNc1cc(C(C)C)nc2ccnn12)N(C)C (stereo not given) was 0%. Result for COC[C@@H]1CCC[C@]12CN(S(=O)(=O)c1cn(C)cn1)CCO2 was 5.495%.

CCC(C(=O)NC1(C(N)=O)CCCC1)n1cccn1 (stereo not given) gave 15.33%. Result for CC(=O)NCCNC(=O)CNC1CCCN(c2ccc(C)nn2)C1 (stereo not given) was 3.989%. Cc1nc(CCNC(=O)NC2CCCc3c2cnn3CCO)cs1 (stereo not given) gave 12.73%. Result for COc1ccc(S(=O)(=O)NC(=O)COC2CCCCC2)cc1 was 16.81%. CC(C)c1nccn1-c1nccnc1C1CCCN1Cc1cccnc1 (stereo not given) gave 17.32%.

With O=C(O)c1ccccc1-n1cc(CN2CCC(c3cc[nH]n3)C2)cn1 (stereo not given) the screen gave 16.2%. CCOc1ncccc1C(=O)Nc1c(C)cnn1CC1CC1 gave 15.05%. With C[C@@H]1CN(CCc2ccccc2)C[C@]12CCN(CC(=O)N(C)C)C2=O the screen gave 13.45%. With Cc1cc(CN2CCc3nc(-c4ccncc4)nc(O)c3CC2)c(C)s1 the screen gave 8.924%. Result for CCOc1ccc(C#N)cc1NCC(=O)NC(=O)Nc1ccccc1 was 15%.

Cc1nc(CN2CCO[C@H]3[C@@H](OCc4ccccn4)CC[C@@H]32)cs1 gave 13.3%.

Some entries from above, unchanged:

Compound	inhibition
Cc1ccc(CNC(=O)Nc2nnc(C3CC3)s2)n1C	16.85%
CCOc1nc2cnccc2n(CC(=O)NCCc2ccccc2)c1=O	3.944%
Cc1cccc(CN2C[C@H](OCc3csc(C)n3)[C@H]3COC[C@H]32)n1	9.375%
CCC[C@@H]1CN(Cc2c[nH]nc2-c2ccc(F)cc2)C[C@H]1NS(C)(=O)=O	8.517%
CCOc1ccc(C#N)cc1NCC(=O)NC(=O)Nc1ccccc1	15%
CC(=O)NCCNC(=O)CNC1CCCN(c2ccc(C)nn2)C1 (stereo not given)	3.989%

Measurements from “University of Dundee, Small-Polar-MMV Screening Library” (2021), ChEMBL document CHEMBL3988442.